In all, about 3,200 compounds were measured (“TSA(with NAD+) / Primary screening (TSA) / delta Tm (K)”: median about -0.04, highest 2% from about 0.37 on). The list shows a part of the results.
biological target: NAD-dependent deacetylase Sirtuin 1 (human, UniProt Q96EB6); experiment: primary screen, delta tm; set-up: single well (n = 1, as 'the same TSA'); conditions: 10 µM

Amino acid sequences for entries named in this document (tags omitted). Residues count along the entry.
UniProt Q96EB6, 2-747 limits assumed: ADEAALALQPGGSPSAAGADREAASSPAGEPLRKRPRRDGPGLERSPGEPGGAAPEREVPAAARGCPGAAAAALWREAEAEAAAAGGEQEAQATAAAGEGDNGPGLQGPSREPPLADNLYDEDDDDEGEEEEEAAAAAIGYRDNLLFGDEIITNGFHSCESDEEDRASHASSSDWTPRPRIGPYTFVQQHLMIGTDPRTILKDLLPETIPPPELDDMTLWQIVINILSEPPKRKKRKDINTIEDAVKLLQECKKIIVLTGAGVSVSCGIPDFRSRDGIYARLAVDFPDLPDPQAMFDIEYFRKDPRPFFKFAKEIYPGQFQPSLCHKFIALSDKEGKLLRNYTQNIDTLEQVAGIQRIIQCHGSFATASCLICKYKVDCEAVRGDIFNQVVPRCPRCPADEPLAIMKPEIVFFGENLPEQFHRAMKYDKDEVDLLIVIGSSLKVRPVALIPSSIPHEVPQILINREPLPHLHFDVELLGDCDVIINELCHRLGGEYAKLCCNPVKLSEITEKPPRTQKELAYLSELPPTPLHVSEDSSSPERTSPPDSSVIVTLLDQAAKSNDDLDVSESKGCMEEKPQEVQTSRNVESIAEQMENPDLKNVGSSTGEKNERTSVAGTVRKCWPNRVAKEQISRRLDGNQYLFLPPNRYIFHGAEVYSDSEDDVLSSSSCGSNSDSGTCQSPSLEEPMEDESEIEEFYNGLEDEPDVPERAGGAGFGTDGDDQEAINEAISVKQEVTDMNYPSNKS

SMILES	TSA(with NAD+) / Primary screening (TSA) / delta Tm (K)
O=C(NC1CCCCCC1)c1ccc2c(c1)CC(c1ccccc1)OC2=O (stereo not drawn)	-0.01 K
CC1CCC(C(N)=O)CN1c1ncnc2ccsc12 (stereo not drawn)	0.05 K
CC1(C)C(=O)Nc2ccccc2N1C(=O)CNc1cccc2c1CCCC2	-0.01 K
CC1(c2cnccn2)NC(=O)NC1=O (stereo not drawn)	-0.19 K
CC(=O)CN1C(=O)c2ccccc2C1=O	0.09 K
Cc1nc(-c2ccc([N+](=O)[O-])cc2)cs1	-0.03 K
O=C(CC1OC(=O)c2ccccc21)Nc1ccc2c(c1)Cc1ccccc1-2 (stereo not drawn)	0.05 K
N#Cc1ncn(-c2ncnc3ccsc23)n1	-0.03 K
Cc1ccc(-c2csc3ncnc(N4CCN(C(=O)Cc5nc(C)cs5)CC4)c23)cc1	0.03 K
FC(F)(F)C1CCCN(c2nsc3ccccc23)C1 (stereo not drawn)	-0.23 K
CCC1(c2ccc(F)cc2)NC(=O)N(CC(=O)Nc2ccc(C(N)=O)cc2)C1=O (stereo not drawn)	-0.18 K
O=C1NCCCc2[nH]c3ccc(Cl)cc3c21	-0.13 K
Cc1[nH]c2ccc(C(=O)NC3CCC(C(N)=O)CC3)cc2c1C (stereo not drawn)	-0.12 K
Sc1nc(C2CC2)n(-c2ccccc2)n1	-0.13 K
CC(C)C(N)CN (stereo not drawn)	0.06 K
COc1ccc(-c2nn(-c3ccccc3)cc2C=C2C(=O)NC(=S)NC2=O)cc1OC	-0.11 K
CCOC(=O)C(C#N)C1(C#N)CCCC1 (stereo not drawn)	-0.26 K
COc1cccc2cc(C(=O)C3=C(O)C(=O)N(CCCN4CCOCC4)C3c3ccc(F)cc3)oc12 (stereo not drawn)	0.02 K
CCN(Cc1cccs1)C(=O)CSc1ncnc2c1cnn2C	-0.11 K
NC(=O)c1c(NC(=O)C2CCN(c3ncc(C(F)(F)F)cc3Cl)CC2)sc2c1CCC2	0.16 K

SMILES	TSA(with NAD+) / Primary screening (TSA) / delta Tm (K)
Cc1nc(-c2ccc(CCNC(=O)c3ccc(NC(N)=O)cc3)s2)cs1	0.08 K
O=C(CNC(=O)c1cccs1)NCC(=O)NC1CC1	-0.08 K
CCOc1ccc(C(=O)N[C@H](C(=O)Nc2nc[nH]c2C(N)=O)C(C)C)cc1	-0.01 K
COc1cccc(C(=O)C2=C(O)C(=O)N(CCCN3CCOCC3)C2c2ccccn2)c1 (stereo not drawn)	-0.11 K
CCOCCCOC(=O)c1ccc2[nH]c(C(F)F)nc2c1	-0.16 K
CC(NC(=O)CCn1ccc2ccccc21)C(=O)NC1CCCC1 (stereo not drawn)	-0.03 K
CCc1ccccc1N1CC(C(=O)Nc2cccc(S(=O)(=O)Nc3ccc(OC)cc3)c2)CC1=O (stereo not drawn)	0.09 K
Cc1cnc(C(=O)OCC(=O)N(c2ccccc2)C(C)C)cn1	-0.19 K
Cc1cc(C)nc(NNC(=O)c2cc(-c3ccco3)nc3c(C(N)=O)ncn23)n1	0.06 K
COc1cccc(NC(=O)C(Oc2ccc(C(N)=O)cc2)c2ccccc2)c1 (stereo not drawn)	-0.01 K
CCn1c(C(=O)Nc2cccc(CN3C(=O)CNC3=O)c2)cc2ccccc21	-0.02 K
CN(c1cccc(Cl)c1)S(=O)(=O)c1cccc(C(=O)Oc2ccc3c4c(c(=O)oc3c2)CCC4)c1	0.09 K
Cn1c(-c2ccccc2)c(C(=O)CCl)c2ccccc21	-0.13 K
NC(=O)C1CCCN(c2ncnc3sc4c(c23)CCCC4)C1 (stereo not drawn)	-0.15 K
COc1ccc2nc3ccccc3nc2c1N	-0.13 K
CN(C)c1noc(C2CC(=O)N(c3ccc(Cl)c(F)c3)C2)n1 (stereo not drawn)	-0.09 K
Cc1nc2ccccc2nc1SCc1cc(=O)n2ccsc2n1	-0.21 K
Cc1ccc(NC(=O)COC(=O)c2ccc(-n3nnc4ccccc43)c([N+](=O)[O-])c2)cc1C	0.35 K
Clc1ccc(C(SCc2ncc(-c3ccccc3)o2)c2ccccc2)cc1 (stereo not drawn)	-0.01 K
CCCOc1ccc(C(=O)C2=C(O)C(=O)N(CCCN3CCOCC3)C2c2ccccc2F)cc1 (stereo not drawn)	-0.22 K

SMILES	TSA(with NAD+) / Primary screening (TSA) / delta Tm (K)
CC(=O)N1N=C(c2ccc(NS(C)(=O)=O)cc2)CC1c1ccc(F)c(Cl)c1 (stereo not drawn)	-0.16 K
CCN(Cc1ccccc1)C(=O)CSc1nncn1-c1ccccc1	0.01 K
Cc1ccc(C23CC4CC(CC(C(=O)OC(C)C(=O)Nc5ccc(S(N)(=O)=O)cc5)(C4)C2)C3)cc1C (stereo not drawn)	0.43 K
COc1ncnc2c1CN(Cc1c[nH]nc1-c1ccc(F)cc1)CC2	-0.18 K
Cn1c(N)c(N2CCNCC2)c(=O)n(C)c1=O	-0.11 K
O=C(O)C1CC(=O)N(c2ccc(S(=O)(=O)Nc3c(F)cccc3F)cc2)C1 (stereo not drawn)	-0.02 K
NCCC1CC1	0.15 K
CN1CCc2cc(NC(=O)COc3ccc(N(C)S(=O)(=O)c4cccs4)cc3)ccc21	-0.11 K
NC(=O)c1ccc(CSc2nc(CC(=O)O)cs2)cc1	-0.09 K
C=CCn1c(SCc2nc(C)c(-c3ccc(Cl)cc3)o2)nnc1-c1ccco1	-0.03 K
Cn1cc(C(N)=O)cc1C(=O)OC1CCc2ccc(F)cc21 (stereo not drawn)	-0.04 K
Cc1nc(CN2CCN(Cc3c(-c4ccccc4)nc4sccn34)CC2)cs1	-0.01 K
Cc1ccc(C)n1-c1sc2c(c1C#N)CCC(C)C2 (stereo not drawn)	-0.28 K
C/C(CC12CC3CC(CC(C3)C1)C2)=N/NC1=NS(=O)(=O)c2ccccc21	0.05 K
C=CCOc1ccc(C(=O)C2=C(O)C(=O)N(CCCN3CCOCC3)C2c2ccccc2F)cc1 (stereo not drawn)	0.07 K
COc1ccc(N(C)S(=O)(=O)c2cccc(C(=O)Nc3ccc4c(C)cc(=O)oc4c3)c2)cc1	-0.09 K
COc1ccc(Nc2ccc3nnnn3n2)cc1OCC1CCCO1 (stereo not drawn)	-0.06 K
Cc1ccc(-c2nc(CC(=O)NNC(=O)c3cccs3)cs2)c(C)c1	-0.01 K
CCC1CCc2[nH]c3ccc(C)cc3c2C1 (stereo not drawn)	-0.01 K
Cn1c(=O)c2c(ncn2CCCC(=O)Nc2nc(-c3ccc4c(c3)CCC(=O)N4)cs2)n(C)c1=O	-0.08 K

Laid out differently: 13 of the compounds above.
SMILES,TSA(with NAD+) / Primary screening (TSA) / delta Tm (K)
NC(=O)C1CCCN(c2ncnc3sc4c(c23)CCCC4)C1 (stereo not drawn),-0.15 K
COc1ccc2nc3ccccc3nc2c1N,-0.13 K
CN(C)c1noc(C2CC(=O)N(c3ccc(Cl)c(F)c3)C2)n1 (stereo not drawn),-0.09 K
Cc1nc2ccccc2nc1SCc1cc(=O)n2ccsc2n1,-0.21 K
Cc1ccc(NC(=O)COC(=O)c2ccc(-n3nnc4ccccc43)c([N+](=O)[O-])c2)cc1C,0.35 K
Clc1ccc(C(SCc2ncc(-c3ccccc3)o2)c2ccccc2)cc1 (stereo not drawn),-0.01 K
CCCOc1ccc(C(=O)C2=C(O)C(=O)N(CCCN3CCOCC3)C2c2ccccc2F)cc1 (stereo not drawn),-0.22 K
CC(=O)N1N=C(c2ccc(NS(C)(=O)=O)cc2)CC1c1ccc(F)c(Cl)c1 (stereo not drawn),-0.16 K
CCN(Cc1ccccc1)C(=O)CSc1nncn1-c1ccccc1,0.01 K
Cc1ccc(C23CC4CC(CC(C(=O)OC(C)C(=O)Nc5ccc(S(N)(=O)=O)cc5)(C4)C2)C3)cc1C (stereo not drawn),0.43 K
COc1ncnc2c1CN(Cc1c[nH]nc1-c1ccc(F)cc1)CC2,-0.18 K
Cn1c(N)c(N2CCNCC2)c(=O)n(C)c1=O,-0.11 K
O=C(O)C1CC(=O)N(c2ccc(S(=O)(=O)Nc3c(F)cccc3F)cc2)C1 (stereo not drawn),-0.02 K

Reference: publication PMC6925144, “A prospective compound screening contest identified broader inhibitors for Sirtuin 1” (Scientific Reports, 2019)
